Taken from: PubChem BioAssay AID652243 (Drosophila RNAi Screening Center, 2013)
Screen: 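Fly genes required for human androgen receptor driven transcription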 (primary screen). Cell system: Drosophila S2R+ cells. Reagents: long dsRNA against Drosophila genes. Timing: 72 h (48 h, then 24 h hormone). Treatment: synthetic androgen R1881 at 10 nM for 24 h. Measurement: 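Per-well raw luminescence of the androgen-driven firefly reporter and of the Renilla control, two replicates each, without normalisation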. Reading the numbers: firefly reporter light: higher = more light from androgen-responsive reporter; Renilla control light: higher = more constitutive control signal (cell number, transfection). Rule for the call: 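Hit when the log firefly-to-Renilla ratio dropped or increased by a fixed fold versus the mean of GFP or LacZ controls across duplicate plates; lowering cut given as 1.5 and as 3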. Meaning of the calls: active = hit: reporter lowered or raised; inactive = no hit.
The screen tested about 24,000 reagents; below is an unselected part of those that have a named target and a result. In the full data, 246 (1%) got an active call. 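Plates not normalised; calls are printed but the firefly/Renilla ratio behind them is not deposited; fold cut for lowering reported inconsistently.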 Raw values are not corrected between plates. Names joined by + are all predicted targets of the reagent. Not given: the amount of reagent.

no.	target	dsRNA	firefly reporter light, replicate 1	firefly reporter light, replicate 2	Renilla control light, replicate 1	Renilla control light, replicate 2	call
1	CG13077	DRSC02181	2.56e5	3.21e5	2.05e6	2.19e6	inactive
2	CG9698	DRSC16539	2.28e5	1.75e5	2.05e6	2.55e6	inactive
3	Tsp42Eq	DRSC06180	3.39e5	3.22e5	2.37e6	1.47e6	inactive
4	mRpS33	DRSC14239	1.99e5	1.93e5	3.08e6	2.53e6	inactive
5	CG30457	DRSC06661	4.49e5	6.68e5	1.38e6	2.45e6	inactive
6	CG30457	DRSC28490	4.35e5	7.07e5	1.38e6	2.38e6	inactive
7	Qsox4	DRSC14224	67353	61624	4.73e5	4.47e5	inactive
8	Rpn9	DRSC16840	32722	46785	2.65e5	2.58e5	inactive
9	Rpn9	DRSC27177	2.20e5	2.47e5	4.31e5	4.47e5	inactive
10	Wbp2	DRSC25018	9.92e5	1.09e6	8.21e5	8.43e5	inactive
11	CG31091	DRSC15933	1.52e5	1.30e5	2.16e6	1.98e6	inactive
12	CG13857	DRSC14707	2.68e5	3.04e5	2.95e6	3.00e6	inactive
13	plu	DRSC07665	58292	98880	1.00e6	1.11e6	inactive
14	CG32407	DRSC09789	86070	65474	1.31e6	7.67e5	inactive
15	CG5348	DRSC06933	77628	67634	1.36e6	1.36e6	inactive
16	lncRNA:CR32553	DRSC19229	7.94e5	9.08e5	1.10e6	9.36e5	inactive
17	CG12746	DRSC12218	40811	51841	1.77e5	1.90e5	inactive
18	CG12746	DRSC36915					inactive
19	l(2)41Ab	DRSC21007	8.55e5	8.42e5	1.16e6	1.18e6	inactive
20	l(2)41Ab	DRSC37749	7.82e5	6.59e5	1.71e6	1.75e6	inactive
21	egl	DRSC23380	8.11e5	8.52e5	4.78e5	4.44e5	inactive
22	CG7970	DRSC08605	1.08e6	5.11e5	2.09e6	1.43e6	inactive
23	CG7970	DRSC26090	3.44e5	2.69e5	8.11e5	6.34e5	inactive
24	CG18858 + CG31683	DRSC26788	3.61e5	3.40e5	6.59e5	4.38e5	inactive
25	Or42b	DRSC04913	2.70e5	2.74e5	1.77e6	1.95e6	inactive
26	Or42b	DRSC27273	2.23e5	2.81e5	4.58e5	5.49e5	inactive
27	Sry-beta	DRSC16868	77186	90909	3.41e5	2.99e5	inactive
28	Sry-beta	DRSC24321	1.46e5	1.73e5	3.04e5	1.79e5	inactive
29	CG34323	DRSC38796	1.02e6	9.63e5	2.04e6	1.70e6	inactive
30	CR17024	DRSC02562	3.41e5	3.02e5	1.85e6	2.41e6	inactive
31	Zip48C	DRSC06314	1.28e6	1.62e6	1.11e6	1.64e6	inactive
32	osa	DRSC17022	66199	51514	4.40e5	4.40e5	inactive
33	jagn	DRSC12152	65383	83111	4.93e5	4.40e5	inactive
34	CG42585 + CG31835	DRSC28807	6.13e5	5.84e5	1.37e6	1.34e6	inactive
35	CG8197	DRSC07105	3.29e5	2.61e5	2.17e6	2.21e6	inactive
36	CG30274	DRSC04171	2.89e5	2.52e5	1.50e6	1.55e6	inactive
37	CG30274	DRSC29207	7.26e5	6.37e5	1.47e6	1.30e6	inactive
38	Dsp1	DRSC23078	3.55e5	1.99e5	3.49e5	5.75e5	inactive
39	Dsp1	DRSC28760	6.10e5	5.26e5	1.32e6	1.55e6	inactive
40	b	DRSC03487	1.80e5	2.38e5	1.29e6	1.74e6	inactive
41	b	DRSC28837	4.00e5	3.74e5	1.25e6	1.65e6	inactive
42	Girdin	DRSC08292	1.12e5	56429	1.55e6	8.68e5	inactive
43	CG34176	DRSC00435	1.31e5	1.41e5	1.19e6	1.26e6	inactive
44	CG40005 (retired record) + cta	DRSC03763	5.87e5	6.69e5	8.31e5	6.34e5	inactive
45	CG14810	DRSC17693	4.85e5	6.74e5	6.14e5	4.37e5	inactive
46	CG14810	DRSC17961	4.03e5	4.99e5	3.85e6	3.62e6	inactive
47	CG14810	DRSC25199	9.37e5	1.28e6	5.45e5	7.88e5	inactive
48	Mat89Ba	DRSC14540	26098	47323	3.43e5	3.77e5	inactive
49	Mat89Ba	DRSC29166	3.58e5	4.31e5	9.18e5	1.37e6	inactive
50	CG42814	DRSC15940	76935	82415	1.26e6	1.47e6	inactive
51	CG13204	DRSC06328	2.22e5	1.08e5	1.17e6	8.26e5	inactive
52	CG13204	DRSC27988	4.18e5	3.67e5	2.01e6	1.38e6	inactive
53	Zasp52	DRSC06269	34522	22295	6.85e5	6.85e5	inactive
54	Zasp52	DRSC07121	1.07e5	1.56e5	1.86e6	1.86e6	inactive
55	CG10570 + CG42502	DRSC28566	1.72e5	5.64e5	8.07e5	1.13e6	inactive
56	MFS1	DRSC04115	3.36e5	3.14e5	1.78e6	1.47e6	inactive
57	MFS1	DRSC27926	6.22e5	2.95e5	2.40e6	1.33e6	inactive
58	Xpd	DRSC04666	8.43e5	9.03e5	2.09e6	2.68e6	inactive
59	Xpd	DRSC27757	1.63e5	2.09e5	3.09e5	4.68e5	inactive

Part of the list above in another layout:
target	dsRNA	firefly reporter light, replicate 1	firefly reporter light, replicate 2	Renilla control light, replicate 1	Renilla control light, replicate 2	call
CG42814	DRSC15940	76935	82415	1.26e6	1.47e6	inactive
CG13204	DRSC06328	2.22e5	1.08e5	1.17e6	8.26e5	inactive
CG13204	DRSC27988	4.18e5	3.67e5	2.01e6	1.38e6	inactive
Zasp52	DRSC06269	34522	22295	6.85e5	6.85e5	inactive
Zasp52	DRSC07121	1.07e5	1.56e5	1.86e6	1.86e6	inactive
CG10570 + CG42502	DRSC28566	1.72e5	5.64e5	8.07e5	1.13e6	inactive
